This note sets out measurements from PMC9286316 (ACS Chemical Biology, 2021).

HELM strings list residues between dots; [ac] is acetyl, [am] amide, other brackets name non-standard units.

The nature of this data set: general procedure: Fmoc solid-phase peptide synthesis. The conditions noted are these: oxidative folding step, 280 nm.
With “PEPTIDE1{G.L.P.V.C.G.E.T.C.V.G.G.T.C.N.T.P.G.C.K.C.S.W.P.V.C.T.R.N}$PEPTIDE1,PEPTIDE1,1:R1-29:R2|PEPTIDE1,PEPTIDE1,5:R3-19:R3|PEPTIDE1,PEPTIDE1,9:R3-26:R3|PEPTIDE1,PEPTIDE1,14:R3-21:R3$$$V2.0”, the “final HPLC purity” value is listed as 93.2%.

For the substance “PEPTIDE1{G.L.P.V.C.G.E.T.C.V.G.G.T.C.N.T.P.G.C.K.C.S.W.P.V.C.T.R.N}$PEPTIDE1,PEPTIDE1,1:R1-29:R2|PEPTIDE1,PEPTIDE1,5:R3-26:R3|PEPTIDE1,PEPTIDE1,9:R3-21:R3|PEPTIDE1,PEPTIDE1,14:R3-19:R3$$$V2.0”, the “final HPLC purity” value is listed as 91.0%.

In the case of “PEPTIDE1{G.L.P.V.C.G.E.T.C.V.G.G.T.C.N.T.P.G.C.K.C.S.W.P.V.C.T.R.N}$PEPTIDE1,PEPTIDE1,1:R1-29:R2|PEPTIDE1,PEPTIDE1,5:R3-9:R3|PEPTIDE1,PEPTIDE1,14:R3-19:R3|PEPTIDE1,PEPTIDE1,21:R3-26:R3$$$V2.0”, the “final HPLC purity” value is on record as 93.2%.

Take “PEPTIDE1{N.G.L.P.V.C.G.E.T.C.V.G.G.T.C.N.T.P.G.C.K.C.S.W.P.V.C.T.R}$PEPTIDE1,PEPTIDE1,6:R3-20:R3|PEPTIDE1,PEPTIDE1,10:R3-22:R3|PEPTIDE1,PEPTIDE1,15:R3-27:R3$$$V2.0”: the “final HPLC purity” value is over 90%.
